Test results published in patent US7378246B2, “Methods and compositions for regulating adipogenesis” (The Board of Trustees of the Leland Stanford Junior …, priority 2002, dated 2008).
At least one compound was matched to its structure with a doubt left.

System: 3T3-L1 preadipocytes
Experiment: Adipocyte differentiation of 3T3-L1 (L1) cells, Oil Red O staining
Format: cell-based
Settings: medium with 10% fetal bovine serum and 1 μM rosiglitazone, 20% O2 (FIG. 4C)
Protocol: Based on previously described procedure (Wu et al., 1996), L1 cells were maintained in GM for 2 days after confluence. The confluent cells were treated (day 0) with differentiation medium (DM) containing 10% FBS, 10 μg/ml INS, 1 μM DEX and 0.5 mM MIX in DMEM for 2 days. Cells were then maintained in DMEM containing 10% FBS and 1 μg/ml INS, and the medium was replaced every other day.
To evaluate the effects of hypoxia on adipogenesis, cells were maintained at 20% O2 in standard incubator, 2% O2 in standard incubator or 0.01% O2 in an anaerobic chamber immediately following treatment with DM. Alternatively, CoCl2 or DFO was added to DM at indicated concentrations either during the initial stage of stimulation or for the entire course of differentiation.
For visualization of differentiated adipocytes, cells were washed with phosphate-buffered saline (PBS) and stained in 60% of the Oil Red O stock solution (0.5 g Oil Red O in 100 ml of isopropanol) for 30 min at 37° C. Cells were briefly washed in 60% isopropanol and then rinsed in distilled water for microscopic observation and photography.
Retroviruses were produced using the phoenix cell system (Baker et al., 1992; Pear et al., 1993). L1 cells at 30-50% confluence were retrovirally infected 2-3 times with 8 μg/ml Polybrene by centrifugation at 1800-2000 rpm for 1 hr, followed by overnight incubation at 32° C. […]

CN(CCOc1ccc(CC2SC(=O)NC2=O)cc1)c1ccccn1 (stereo not shown) [rosiglitazone]
differentiation of PPARγ2-infected L1 cells: Significant adipocyte differentiation
